Results on 1 sequence are retold here after paper PMC3474971.

For at least one entry, the source does not settle the construct or the ends of the probe. No signal at the amounts used counts as a negative.

The subject of this data set is lysozyme. The data set can be described thus: dye-displacement fluorescence. To be noted: YOYO-1 25 nM, aptamer 10 nM; 20 mM Tris-Cl pH 7.5, 300 mM NaCl, 5 mM MgCl2, 10 mM KCl; 25 C; 30 min incubation with target before dye; folded or branched DNA.

“GGTTGGTGTGGTTGG [thrombin-binding aptamer (TBA)]”: the binding result was “no binding”.
